For some of these results: Expression grades refer to the transcript from which the peptide derives; gene names, where given, were looked up from the sequence.
Test system: HLA molecules from shock-frozen tissue samples (CRC, other tumors, normal tissues)
Assay: Identification and label-free relative LC-MS quantitation of HLA-presented tumor associated peptides (presentation profiles, XPRESIDENT)
Design: species or system human; key to Peptide Presentation (presentation score): very highly over-presented on tumors compared to a panel of normal tissues (+++); highly over-presented on tumors compared to a panel of normal tissues (++); over-presented on tumors compared to a panel of normal tissues (+)
Settings: additional tumor types: over-presented on more than 5% of measured tumor samples, or presented on more than 5% with ratio of geometric means tumor vs normal larger than 3

Substance	Other relevant organs/diseases
160: peptide found in SYNJ2 (gene looked up) (KLLEFDQLQL; listed as Homo sapiens) [compound 160]	Lung, Kidney, Leukocytes, Ovary
8: peptide found in HSPD1 (gene looked up) (ALMLQGVDLL; listed as Homo sapiens) [compound 8]	Pancreas, Leukocytes
223: peptide found in CDK1 (gene looked up) (VLMQDSRLYL; listed as Homo sapiens) [compound 223]	Lung
140: peptide found in NCAPG (gene looked up) (LLNEILEQV; listed as Homo sapiens) [compound 140]	Lung, Melanoma, Ovary
228: peptide found in HNRNPH1 (gene looked up) (SMSGYDQVL; listed as Homo sapiens) [compound 228]	Lung, Leukocytes
257: peptide found in CNOT1 (gene looked up) (SLADFMQEV; listed as Homo sapiens) [compound 257]	Lung, Prostate, MCC, Ovary
156: peptide found in TOP2A (gene looked up) (SLMMTIINL; listed as Homo sapiens) [compound 156]	Lung, Liver, Melanoma
84: peptide found in DSP (gene looked up) (SMVEDITGLRL; listed as Homo sapiens) [compound 84]	Lung, Liver, Esophagus
184: peptide found in PRKDC (gene looked up) (SLLDENNVSSYL; listed as Homo sapiens) [compound 184]	Lung, Kidney, Liver, Pancreas, Prostate, MCC, Melanoma, Ovary, Esophagus
92: peptide found in PARN (gene looked up) (WIDDTSAFV; listed as Homo sapiens) [compound 92]	Melanoma
13: peptide found in SMC2 (gene looked up) (FLLAEDTKV; listed as Homo sapiens) [compound 13]	Melanoma
239: peptide found in KIF15 (gene looked up) (QLIEKNWLL; listed as Homo sapiens) [compound 239]	Lung, Liver, Leukocytes, Ovary, Esophagus
190: peptide found in NCAPD2 (gene looked up) (AMAEMVLQV; listed as Homo sapiens) [compound 190]	Lung
183: peptide found in AGK (gene looked up) (TLQEVVTGV; listed as Homo sapiens) [compound 183]	Prostate, Breast
135: peptide found in CENPE (gene looked up) (KLQEEIPVL; listed as Homo sapiens) [compound 135]	Lung
172: peptide found in COPG1 (gene looked up) (LLLDTVTMQV; listed as Homo sapiens) [compound 172]	Kidney, Melanoma, Ovary
240: peptide found in RCN1 (gene looked up) (VLAPRVLRA; listed as Homo sapiens) [compound 240]	Lung, Kidney, Brain, Liver, Pancreas, Ovary
90: peptide found in EBNA1BP2 (gene looked up) (GLLKPGLNVVL; listed as Homo sapiens) [compound 90]	Lung, Esophagus
139: peptide found in NCAPG (gene looked up) (VLLNEILEQV; listed as Homo sapiens) [compound 139]	Lung, Liver, Melanoma, Ovary, Esophagus
89: peptide found in ITGA6 (gene looked up) (SLIEYEFRV; listed as Homo sapiens) [compound 89]	Liver, Esophagus
225: peptide found in TOP2A (gene looked up) (YLYGQTTTYL; listed as Homo sapiens) [compound 225]	Lung, Kidney, Stomach, Liver, Melanoma, Ovary, Esophagus
187: peptide found in CNOT1 (gene looked up) (GLHNVVYGI; listed as Homo sapiens) [compound 187]	Prostate

Same assay, conditions: over-presentation on more than 5% of the measured tumor samples, or presentation on more than 5% of the measured tumor samples with ratio of geometric means tumor vs normal tissues larger than 3

Substance	Additional Entities (additional tumor types on which the peptide was found)
160: peptide found in SYNJ2 (gene looked up) (KLLEFDQLQL; listed as Homo sapiens) [compound 160]	SCLC
75: peptide found in CFTR (gene looked up) (EMIENIQSV; listed as Homo sapiens) [compound 75]	Gallbladder Cancer, Bile Duct Cancer
8: peptide found in HSPD1 (gene looked up) (ALMLQGVDLL; listed as Homo sapiens) [compound 8]	BRCA, Melanoma, Urinary bladder cancer, AML
140: peptide found in NCAPG (gene looked up) (LLNEILEQV; listed as Homo sapiens) [compound 140]	SCLC, CLL, Urinary bladder cancer, Uterine Cancer, Gallbladder Cancer, Bile Duct Cancer, AML, NHL
156: peptide found in TOP2A (gene looked up) (SLMMTIINL; listed as Homo sapiens) [compound 156]	SCLC, GC, Urinary bladder cancer, Uterine Cancer, Gallbladder Cancer, Bile Duct Cancer, AML, NHL, OC
84: peptide found in DSP (gene looked up) (SMVEDITGLRL; listed as Homo sapiens) [compound 84]	SCLC, OC, Urinary bladder cancer, Uterine Cancer, NHL
184: peptide found in PRKDC (gene looked up) (SLLDENNVSSYL; listed as Homo sapiens) [compound 184]	SCLC, CLL, BRCA, Urinary bladder cancer, Gallbladder Cancer, Bile Duct Cancer, AML, NHL, OC
13: peptide found in SMC2 (gene looked up) (FLLAEDTKV; listed as Homo sapiens) [compound 13]	Urinary bladder cancer, AML, NHL, OC
130: peptide found in PRRC2C (gene looked up) (GLGGSQLIDTHL; listed as Homo sapiens) [compound 130]	Esophageal Cancer, Uterine Cancer
190: peptide found in NCAPD2 (gene looked up) (AMAEMVLQV; listed as Homo sapiens) [compound 190]	SCLC, CLL, BRCA, Urinary bladder cancer, Gallbladder Cancer, Bile Duct Cancer, AML, NHL
183: peptide found in AGK (gene looked up) (TLQEVVTGV; listed as Homo sapiens) [compound 183]	CLL, Melanoma, Urinary bladder cancer, Uterine Cancer, NHL
135: peptide found in CENPE (gene looked up) (KLQEEIPVL; listed as Homo sapiens) [compound 135]	BRCA, Melanoma, NHL
172: peptide found in COPG1 (gene looked up) (LLLDTVTMQV; listed as Homo sapiens) [compound 172]	Urinary bladder cancer, Gallbladder Cancer, Bile Duct Cancer, AML
90: peptide found in EBNA1BP2 (gene looked up) (GLLKPGLNVVL; listed as Homo sapiens) [compound 90]	Urinary bladder cancer, AML
139: peptide found in NCAPG (gene looked up) (VLLNEILEQV; listed as Homo sapiens) [compound 139]	SCLC, CLL, Urinary bladder cancer, Uterine Cancer, AML, NHL, PC
187: peptide found in CNOT1 (gene looked up) (GLHNVVYGI; listed as Homo sapiens) [compound 187]	CLL, Melanoma, Urinary bladder cancer, NHL
64: peptide found in SOX9 (gene looked up) (KTLGKLWRL; listed as Homo sapiens) [compound 64]	Melanoma

Same assay, conditions: over-presentation on tumors compared to a panel of normal tissues

Substance	Peptide Presentation (presentation score)
160: peptide found in SYNJ2 (gene looked up) (KLLEFDQLQL; listed as Homo sapiens) [compound 160]	++
75: peptide found in CFTR (gene looked up) (EMIENIQSV; listed as Homo sapiens) [compound 75]	+
8: peptide found in HSPD1 (gene looked up) (ALMLQGVDLL; listed as Homo sapiens) [compound 8]	+++
223: peptide found in CDK1 (gene looked up) (VLMQDSRLYL; listed as Homo sapiens) [compound 223]	+++
228: peptide found in HNRNPH1 (gene looked up) (SMSGYDQVL; listed as Homo sapiens) [compound 228]	+
257: peptide found in CNOT1 (gene looked up) (SLADFMQEV; listed as Homo sapiens) [compound 257]	++
156: peptide found in TOP2A (gene looked up) (SLMMTIINL; listed as Homo sapiens) [compound 156]	++
92: peptide found in PARN (gene looked up) (WIDDTSAFV; listed as Homo sapiens) [compound 92]	+++
13: peptide found in SMC2 (gene looked up) (FLLAEDTKV; listed as Homo sapiens) [compound 13]	+++
130: peptide found in PRRC2C (gene looked up) (GLGGSQLIDTHL; listed as Homo sapiens) [compound 130]	+++
239: peptide found in KIF15 (gene looked up) (QLIEKNWLL; listed as Homo sapiens) [compound 239]	+++
183: peptide found in AGK (gene looked up) (TLQEVVTGV; listed as Homo sapiens) [compound 183]	+
135: peptide found in CENPE (gene looked up) (KLQEEIPVL; listed as Homo sapiens) [compound 135]	+++
172: peptide found in COPG1 (gene looked up) (LLLDTVTMQV; listed as Homo sapiens) [compound 172]	+
240: peptide found in RCN1 (gene looked up) (VLAPRVLRA; listed as Homo sapiens) [compound 240]	++
90: peptide found in EBNA1BP2 (gene looked up) (GLLKPGLNVVL; listed as Homo sapiens) [compound 90]	+
139: peptide found in NCAPG (gene looked up) (VLLNEILEQV; listed as Homo sapiens) [compound 139]	+
89: peptide found in ITGA6 (gene looked up) (SLIEYEFRV; listed as Homo sapiens) [compound 89]	++
225: peptide found in TOP2A (gene looked up) (YLYGQTTTYL; listed as Homo sapiens) [compound 225]	+
187: peptide found in CNOT1 (gene looked up) (GLHNVVYGI; listed as Homo sapiens) [compound 187]	++
64: peptide found in SOX9 (gene looked up) (KTLGKLWRL; listed as Homo sapiens) [compound 64]	+++

Test system: source genes of the peptides in CRC and normal tissues
Assay: mRNA expression profiling of source genes encoding the peptides (Affymetrix microarrays)
Design: species or system human; key: very highly over-expressed in tumors compared to a panel of normal tissues (+++); highly over-expressed in tumors compared to a panel of normal tissues (++); over-expressed in tumors compared to a panel of normal tissues (+)
Settings: over-expression in tumors compared to a panel of normal tissues

Substance	Gene Expression (expression score of source gene)
160: peptide found in SYNJ2 (gene looked up) (KLLEFDQLQL; listed as Homo sapiens) [compound 160]	+
75: peptide found in CFTR (gene looked up) (EMIENIQSV; listed as Homo sapiens) [compound 75]	+++
8: peptide found in HSPD1 (gene looked up) (ALMLQGVDLL; listed as Homo sapiens) [compound 8]	+
223: peptide found in CDK1 (gene looked up) (VLMQDSRLYL; listed as Homo sapiens) [compound 223]	+++
140: peptide found in NCAPG (gene looked up) (LLNEILEQV; listed as Homo sapiens) [compound 140]	+++
228: peptide found in HNRNPH1 (gene looked up) (SMSGYDQVL; listed as Homo sapiens) [compound 228]	+++
257: peptide found in CNOT1 (gene looked up) (SLADFMQEV; listed as Homo sapiens) [compound 257]	+
156: peptide found in TOP2A (gene looked up) (SLMMTIINL; listed as Homo sapiens) [compound 156]	+++
84: peptide found in DSP (gene looked up) (SMVEDITGLRL; listed as Homo sapiens) [compound 84]	+
184: peptide found in PRKDC (gene looked up) (SLLDENNVSSYL; listed as Homo sapiens) [compound 184]	+
92: peptide found in PARN (gene looked up) (WIDDTSAFV; listed as Homo sapiens) [compound 92]	+
13: peptide found in SMC2 (gene looked up) (FLLAEDTKV; listed as Homo sapiens) [compound 13]	+++
130: peptide found in PRRC2C (gene looked up) (GLGGSQLIDTHL; listed as Homo sapiens) [compound 130]	++
239: peptide found in KIF15 (gene looked up) (QLIEKNWLL; listed as Homo sapiens) [compound 239]	+++
190: peptide found in NCAPD2 (gene looked up) (AMAEMVLQV; listed as Homo sapiens) [compound 190]	+
183: peptide found in AGK (gene looked up) (TLQEVVTGV; listed as Homo sapiens) [compound 183]	++
135: peptide found in CENPE (gene looked up) (KLQEEIPVL; listed as Homo sapiens) [compound 135]	+
172: peptide found in COPG1 (gene looked up) (LLLDTVTMQV; listed as Homo sapiens) [compound 172]	+
240: peptide found in RCN1 (gene looked up) (VLAPRVLRA; listed as Homo sapiens) [compound 240]	++
90: peptide found in EBNA1BP2 (gene looked up) (GLLKPGLNVVL; listed as Homo sapiens) [compound 90]	++
139: peptide found in NCAPG (gene looked up) (VLLNEILEQV; listed as Homo sapiens) [compound 139]	+++
89: peptide found in ITGA6 (gene looked up) (SLIEYEFRV; listed as Homo sapiens) [compound 89]	++
225: peptide found in TOP2A (gene looked up) (YLYGQTTTYL; listed as Homo sapiens) [compound 225]	+++
187: peptide found in CNOT1 (gene looked up) (GLHNVVYGI; listed as Homo sapiens) [compound 187]	+
64: peptide found in SOX9 (gene looked up) (KTLGKLWRL; listed as Homo sapiens) [compound 64]	++

From patent publication US10513547B2, “Peptides and combination of peptides and scaffolds thereof for use in immunotherapy against colorectal carcinoma (CRC) and other cancers” (Immatics Biotechnologies GmbH, priority 2015, dated 2019)
